This is an account of results in the supplement of paper PMC12873370.

Experiment [1] deals with MEPP (mouse ovarian epithelium Trp53/Pten KO). Description: cell viability relative to untreated (fraction); higher = less growth inhibition. The note with it: 5 µM; 3 days.
The subject of experiment [2] is PREPP (mouse prostate epithelium Trp53/Pten KO). The description is as above. The following applies: 5 µM; 3 days.

The other results are listed elsewhere or left out. Most values come without repeats; read them as rough.

Regarding `COc1ccc2cc([C@H](C)C(=O)O)ccc2c1`, the cell viability stood at 1.15 in experiment [1] and 0.929 in experiment [2].

`OC[C@H]1O[C@@H](Oc2ccc(O)cc2)[C@H](O)[C@@H](O)[C@@H]1O`: the cell viability in experiment [1] stood at 1.19; in experiment [2] it was 1.03.

As to `Cn1c(=O)c2c(ncn2CC2OCCO2)n(C)c1=O`, the cell viability in experiment [1] stood at 0.999; in experiment [2] it was 1.01.

Regarding `O=c1cc(-c2ccc(O[C@@H]3O[C@H](CO)[C@@H](O)[C@H](O)[C@H]3O)cc2)oc2cc(O)c([C@@H]3O[C@H](CO)[C@@H](O)[C@H](O)[C@H]3O[C@@H]3OC[C@H](O)[C@H](O)[C@H]3O)c(O)c12`, the cell viability in experiment [1] came to 1.03; in experiment [2], 0.909.

`CCCCCC/C=C\CCCCCCCc1cccc(O)c1C(=O)O`: the cell viability in experiment [1] worked out at 1.06; in experiment [2], 0.918.

In the case of `O=C1C=C(O)C(=O)c2ccccc21`, the values for the cell viability in experiment [1] and in experiment [2] were 0.992 and 0.764, respectively.

Turning to `NCCC(=O)N[C@@H](Cc1c[nH]cn1)C(=O)O`, the cell viability in experiment [1] was found to be 1.12; in experiment [2] it was 0.986.

As to `COc1cc2ncnc(Nc3ccc(F)c(Cl)c3)c2cc1OCCCN1CCOCC1`, the results for the cell viability in experiment [1] and in experiment [2] were 1.02 and 0.828, respectively.

For `Cc1ncc(C[n+]2csc(CCOP(=O)(O)OP(=O)(O)O)c2C)c(N)n1`, the cell viability in experiment [1] amounted to 0.766; in experiment [2] it was 0.913.

Regarding `O=C[C@H](O)[C@@H](O)[C@H](O)CO`, the cell viability in experiment [1] was determined as 1.12; in experiment [2] it was 0.943.

Turning to `COc1cc(C=O)cc(OC)c1O`, the cell viability in experiment [1] stood at 0.952; in experiment [2] it was 1.02.

Turning to `C/C=C/c1cc(OC)c2c(c1)C(C)C(c1ccc(O)c(OC)c1)O2` (stereo unspecified), the cell viability was 0.966 in experiment [1] and 1.03 in experiment [2].

`CCn1cc(C(=O)O)c(=O)c2cc(F)c(N3CCN(C)CC3)cc21`: the cell viability worked out at 0.875 in experiment [1] and 0.892 in experiment [2].
